The experiment deals with T1, FLAG-FAM83B (Family with Sequence Similarity 83, member B) (UniProt Q5T0W9).
T1 sequence: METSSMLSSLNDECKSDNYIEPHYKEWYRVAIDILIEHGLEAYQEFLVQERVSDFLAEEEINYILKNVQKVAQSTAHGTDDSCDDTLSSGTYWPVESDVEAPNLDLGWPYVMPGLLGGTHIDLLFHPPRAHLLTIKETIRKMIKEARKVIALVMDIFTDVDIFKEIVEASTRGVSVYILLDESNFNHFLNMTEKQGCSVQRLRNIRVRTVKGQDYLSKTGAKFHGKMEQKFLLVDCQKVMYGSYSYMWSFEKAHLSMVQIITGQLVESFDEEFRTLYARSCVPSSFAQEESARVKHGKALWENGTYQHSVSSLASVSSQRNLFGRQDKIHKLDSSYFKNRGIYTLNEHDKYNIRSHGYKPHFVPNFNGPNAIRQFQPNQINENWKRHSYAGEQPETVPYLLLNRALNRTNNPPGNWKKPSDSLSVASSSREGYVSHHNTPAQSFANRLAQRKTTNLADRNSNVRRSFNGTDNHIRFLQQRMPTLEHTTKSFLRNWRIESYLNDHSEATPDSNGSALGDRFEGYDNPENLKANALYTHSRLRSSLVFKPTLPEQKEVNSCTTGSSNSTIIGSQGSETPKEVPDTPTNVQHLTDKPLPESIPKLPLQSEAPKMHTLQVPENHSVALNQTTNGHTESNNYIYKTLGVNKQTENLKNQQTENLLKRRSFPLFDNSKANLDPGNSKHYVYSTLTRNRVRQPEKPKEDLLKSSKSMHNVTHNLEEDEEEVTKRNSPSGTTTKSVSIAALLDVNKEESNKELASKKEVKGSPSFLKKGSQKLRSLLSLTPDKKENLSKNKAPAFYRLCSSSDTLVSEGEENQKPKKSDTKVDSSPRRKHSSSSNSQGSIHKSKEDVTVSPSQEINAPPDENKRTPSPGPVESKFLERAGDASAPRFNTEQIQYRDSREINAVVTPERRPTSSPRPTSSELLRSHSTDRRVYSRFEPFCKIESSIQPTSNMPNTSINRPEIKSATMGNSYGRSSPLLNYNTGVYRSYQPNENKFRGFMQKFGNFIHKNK
Briefly: co-IP; 293T cells co-transfected with 4 μg of each plasmid (lipofectamine 2000); immunoprecipitation with anti-FLAG (M2) affinity gel; lysis buffer 50 mmol/L Tris pH 8.0, 150 mmol/L NaCl, 1.0% NP40; Western analysis of the precipitate.

Sequences of proteins named here, by UniProt entry; tags and fusion partners are left off.
UniProt P27986: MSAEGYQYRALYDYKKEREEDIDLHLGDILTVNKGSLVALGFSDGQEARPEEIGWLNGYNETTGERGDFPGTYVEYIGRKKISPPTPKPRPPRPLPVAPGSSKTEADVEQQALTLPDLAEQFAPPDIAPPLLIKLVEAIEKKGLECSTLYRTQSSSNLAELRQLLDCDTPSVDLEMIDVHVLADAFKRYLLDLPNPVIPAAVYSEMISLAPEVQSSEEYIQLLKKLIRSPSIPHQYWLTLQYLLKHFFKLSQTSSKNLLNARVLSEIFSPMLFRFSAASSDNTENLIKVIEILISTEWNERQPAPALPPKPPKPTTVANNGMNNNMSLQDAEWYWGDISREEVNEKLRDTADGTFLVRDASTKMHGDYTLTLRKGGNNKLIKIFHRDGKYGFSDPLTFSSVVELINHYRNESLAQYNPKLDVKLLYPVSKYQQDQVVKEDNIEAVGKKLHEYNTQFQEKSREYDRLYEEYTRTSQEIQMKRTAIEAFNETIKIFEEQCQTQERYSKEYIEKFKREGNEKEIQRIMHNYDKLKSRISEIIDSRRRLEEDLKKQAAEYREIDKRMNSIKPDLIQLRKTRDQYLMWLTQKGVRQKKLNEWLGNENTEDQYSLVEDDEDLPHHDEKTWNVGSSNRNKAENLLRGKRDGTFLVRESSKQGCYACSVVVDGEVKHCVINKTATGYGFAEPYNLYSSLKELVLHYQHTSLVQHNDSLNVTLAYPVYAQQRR

Results are given in words; binding and its absence hold for the method and conditions named. Binding seen in cells or lysates may run through a third protein. Some binding calls cover weakened binding; strength is not graded here. Where a sequence is shown, tags or fusion partners need not be part of it.

In the case of “HA-p85 (p85α regulatory subunit of PI3K) (from UniProt P27986 1-724)”, the binding result was “binds”.

The values are drawn from PMC3742833.
